The source of these data is paper PMC12040169 (PLOS Biology, 2025).

This is one part of the list.

The test system of the assay is T1, CTL2-GFP (C. trachomatis L2/434/Bu, GFP-expressing).
T1 construct: L2/434/Bu, GFP-expressing
Also noted: species or system HeLa; Intracellular C. trachomatis growth in HeLa cells, bulk GFP fluorescence relative to DMSO. Conditions: bulk GFP, single well; 28.5 h, 10 µM; inhibitor.
With `O=[N+]([O-])c1cccc(/C=C/C=N/c2ccc3c(c2)S(=O)(=O)c2cc(/N=C/C=C/c4cccc([N+](=O)[O-])c4)ccc2-3)c1` [CBK261244], the “% of control remaining” value is 100%.

Regarding `COCC(=O)N[C@H]1CC(C)(C)[C@@H]2C[C@@](C)(O)CC[C@]12CCC(=O)N1CCCC1` [CBK289043], the “% of control remaining” value is 132.117%.

In the case of `O=C(O)c1cccc(NS(=O)(=O)c2cccc(S(=O)(=O)c3ccc(Cl)c(Cl)c3)c2)c1` [CBK261259], the “% of control remaining” value came to 100%.

For `Cc1ccc2nc(/C(C#N)=C/c3ccc(-c4ccc(S(N)(=O)=O)cc4)o3)[nH]c2c1` [CBK266386], the “% of control remaining” value was 100%.

Take `CC(=O)c1ccc(-c2cc(C(=O)NCCc3cccnc3)cnc2-c2ccc(F)cc2)s1` [CBK036614]: the “% of control remaining” value stood at 75.16%.

Regarding `O=C(O)CCn1c(-c2ccc(F)cc2)cc2cccnc21` [CBK282583], the “% of control remaining” value worked out at 105.979%.

Take `CCCOCC1CCN(C(=O)Nc2ccc(Oc3cccnc3)cc2)C1` (stereo not drawn) [CBK306799]: the “% of control remaining” value came to 86.328%.

Take `COc1ccc(C(C)C)cc1-c1nccnc1NC1CCC(N)CC1` (stereo not drawn) [CBK036703]: the “% of control remaining” value was determined as 78.5648%.

In the case of `CCc1ccc(C(=O)NCCCN2CCOCC2)cc1` [CBK268144], the “% of control remaining” value came to 100.794%.

On to `O=C(NCCOc1ccccc1)N1CCCC(CO)C1` (stereo not drawn) [CBK156058], for which the “% of control remaining” value is recorded as 100%.

For `CC1CCCCN1C(=O)CN1C(=O)N2CCN=C2c2ccccc21` (stereo not drawn) [CBK283921], the “% of control remaining” value was determined as 108.905%.

For the compound `O=C(O)CCCNc1ncnc2c1oc1ccccc12` [CBK287573], the “% of control remaining” value came to 144.052%.

As for `COC(=O)c1ccc(NS(=O)(=O)c2ccc(C)c(C(=O)O)c2)c(C)c1` [CBK296684], the “% of control remaining” value was found to be 129.004%.

Turning to `O=C(/C=C/c1ccc(Cl)cc1Cl)Nc1sc2c(c1C(=O)NCc1cccnc1)CCCC2` [CBK265497], the “% of control remaining” value is recorded as 132.805%.

As for `Cn1ncc2c(NCc3cccc(Cn4cncn4)c3)ncnc21` [CBK304241], the “% of control remaining” value was 87.9659%.

Regarding `COc1ccc(COc2nccnc2N2CCCC2)cc1OC` [CBK116613], the “% of control remaining” value is reported as 155.862%.

In the case of `CC(C)CSc1nc(O)cc(=O)n1Cc1ccccc1` [CBK291170], the “% of control remaining” value was 93.3264%.

`Cc1ccccc1NC1=NC(=O)C(CC(C)C)O1` (stereo not drawn) [CBK074902]: the “% of control remaining” value came to 118.369%.

Consider `Nc1cc(=O)[nH]c(SCC(=O)N2CCCc3ccccc32)n1` [CBK304576], for which the “% of control remaining” value is recorded as 103.225%.

Consider `OCC1(CNc2ncc(F)c(N3CCCC3)n2)CCCC1` [CBK307397], for which the “% of control remaining” value is reported as 57.1017%.

Consider `COc1ccc(CN(Cc2ccc(NC(C)=O)cc2)[C@@H]2COC[C@H]2c2ccc(F)cc2)cc1` [CBK286488], for which the “% of control remaining” value is recorded as 63.2338%.

Regarding `CC(Oc1ccccc1)C(=O)Nc1cccc(-c2nnc(-c3ccccc3)o2)c1` (stereo not drawn) [CBK262822], the “% of control remaining” value was found to be 128.781%.

`O=C1NC2=C(C(=O)N(CC3CCCO3)C2)C(c2ccccc2)N1` (stereo not drawn) [CBK283494]: the “% of control remaining” value came out at 95.8593%.

As to `Cc1cccnc1Nc1ccc(C2CCCN(C(=O)Cc3ccc4c(c3)CCCO4)C2)nc1` (stereo not drawn) [CBK285969], the “% of control remaining” value amounted to 123.132%.

Turning to `O=C(CCCc1nc2ccccc2c(=O)[nH]1)NC(Cc1ccc(O)cc1)C(=O)O` (stereo not drawn) [CBK297130], the “% of control remaining” value is on record as 100.267%.

On to `Cn1nc(NC(=O)CN2CCOC2=O)c2c(N3CCOCC3)cccc21` [CBK306830], for which the “% of control remaining” value stood at 126.234%.

`CNC(=O)CN1CCC[C@@H]2NC(=O)c3ccccc3OCCCCC[C@@H]21` [CBK292104]: the “% of control remaining” value is listed as 121.264%.

For the compound `COc1ccc(-c2cc(C(=O)NCCc3c[nH]cn3)cnc2-c2ccc(F)cc2)cn1` [CBK036675], the “% of control remaining” value came to 84.614%.

In the case of `Cc1ccc(S(=O)(=O)N2CCN(C)CC2)cc1NC(=O)c1ccc(Br)o1` [CBK034260C], the “% of control remaining” value turned out to be 103.377%.

Consider `O=C(NCCc1cccs1)Nc1cc(Cl)nc(Cl)c1` [CBK043762], for which the “% of control remaining” value worked out at 78.275%.

As for `CC(Sc1ccc(S(=O)(=O)N2CCN(C)CC2)cn1)C(=O)Nc1ccc(C(C)(C)C)cc1` (stereo not drawn) [CBK297551], the “% of control remaining” value is listed as 85.78%.

For `COc1ccc(NC(=O)c2cnc(-c3cccc(C(F)(F)F)c3)c(-c3ccncc3)c2)cc1` [CBK037593], the “% of control remaining” value worked out at 105.286%.

Regarding `O=C1NC2(CCCC2)C(=O)N1Cc1cnn(-c2ccccc2)n1` [CBK305568], the “% of control remaining” value came to 94.6759%.

Turning to `COC(=O)c1ccccc1NC(=O)CSc1n[nH]c(-c2ccccc2Cl)n1` [CBK265966], the “% of control remaining” value came to 95.6745%.

With `Clc1ccc(CN2CCN(c3nccnc3OC3CCCCC3)CC2)cc1` [CBK082826T], the “% of control remaining” value is on record as 75.8169%.

`CCOC(=O)N1N=C(c2ccc(F)cc2)CC1(O)C(F)(F)F` (stereo not drawn) [CBK027156]: the “% of control remaining” value is given as 115.258%.

With `OCCN1CCN(c2ccc(-c3cc(C(F)(F)F)cc(C(F)(F)F)c3)cn2)CC1` [CBK036941], the “% of control remaining” value came out at 121.654%.

In the case of `O=C(/C=C(O)/C(O)=C/C(=O)c1ccc(Cl)cc1)c1ccc(Cl)cc1` [CBK261428], the “% of control remaining” value stood at 111.127%.

Take `O=C(O)CCC(=O)Nc1ccc(OC(F)F)cc1` [CBK264222]: the “% of control remaining” value worked out at 102.142%.

As for `O=[N+]([O-])c1ccc(S(=O)(=O)NCCc2nc3ccccc3[nH]2)cc1` [CBK261796], the “% of control remaining” value worked out at 71.6066%.

As for `CN1C(=O)NC(c2ccc(Br)cc2)C2=C1CN(c1cccc(C(=O)O)c1)C2=O` (stereo not drawn) [CBK286729], the “% of control remaining” value is reported as 146.146%.

As to `COC(=O)c1cc(-c2ccccc2)sc1NC(=O)CSc1ncnc2sc3c(c12)CCC3` [CBK265978], the “% of control remaining” value came out at 165.52%.

Take `CCCCc1ccc(S(=O)(=O)n2ccc3c(N4CCNCC4)nccc32)cc1` [CBK045805C]: the “% of control remaining” value is given as 110.156%.

Consider `COc1cc(CNC(=O)N2CCCC(CO)C2)cc(OC)c1OC` (stereo not drawn) [CBK156041], for which the “% of control remaining” value was determined as 100.171%.

As for `Cc1csc(C(Cc2cccs2)NC(=O)CN(C)C)n1` (stereo not drawn) [CBK285124], the “% of control remaining” value turned out to be 110.96%.

As for `CN(C(=O)c1cc(O)nc2ccccc12)c1nccs1` [CBK297778], the “% of control remaining” value was 110.924%.

On to `O=P(O)(CCc1ccccc1)CN1CCCCC1` [CBK262318], for which the “% of control remaining” value turned out to be 125.775%.

With `CCCCn1ncnc1-c1cnc2ccnn2c1C` [CBK307305], the “% of control remaining” value is on record as 107.517%.

`Cc1nc(-c2nnc(SCc3ccc(C(F)(F)F)cc3)o2)cs1` [CBK067715]: the “% of control remaining” value worked out at 94.1839%.

`CC(C)Nc1cc(OCc2ccc(F)cc2)ncn1` [CBK115654]: the “% of control remaining” value worked out at 122.735%.

Regarding `CCCc1cc(C(=O)OC)c(NC(=O)C2C3CCC(C3)C2C(=O)O)s1` (stereo not drawn) [CBK057885], the “% of control remaining” value turned out to be 120.23%.

Regarding `COc1cccc(C(=O)NCC(C)(C)SCc2ccc(F)cc2)c1` [CBK022322], the “% of control remaining” value is on record as 74.6741%.

Take `CCn1c(=O)c(C=Cc2cc(OC)c(O)c(OC)c2)nc2cc(C(=O)O)ccc21` [CBK296701]: the “% of control remaining” value came to 131.842%.

`COc1ccc(OC)c(N2Cc3ccc(OC)c(OC)c3C2=O)c1` [CBK113161]: the “% of control remaining” value turned out to be 131.131%.

For the compound `CNC(=O)c1cnc2sc3c(n2c1=O)CCCC3` [CBK288126], the “% of control remaining” value amounted to 121.471%.

Consider `CC(Oc1cccc2cccnc12)C(=O)N/N=C/c1ccc(-c2ccc(Br)cc2)o1` (stereo not drawn) [CBK262838], for which the “% of control remaining” value is given as 100%.

In the case of `Fc1ccc(-c2c[nH]c([C@@H]3COCCN3Cc3ncc[nH]3)n2)cc1` [CBK289263], the “% of control remaining” value stood at 134.078%.

With `CCN(CC)C(=O)C1CCCN(C(=O)Nc2ccc(N(CC)CC)cc2)C1` (stereo not drawn) [CBK156139], the “% of control remaining” value is given as 95.0638%.

Regarding `Cc1ccc(CS(=O)(=O)N(CCO)C2CCC2)c(F)c1` [CBK304101], the “% of control remaining” value is 162.452%.

As to `O=C(NC(S(=O)O)C(F)(F)F)OCc1ccccc1` (stereo not drawn) [CBK018979], the “% of control remaining” value is recorded as 145.536%.

On to `NS(=O)(=O)c1ccc(-c2ccc(/C=C3/SC(=S)N(C4CCCCC4)C3=O)o2)cc1` [CBK263127], for which the “% of control remaining” value is recorded as 100%.

Take `N=C(NC(=S)Nc1ccccc1)N1CCN(Cc2ccccc2)CC1` [CBK267878]: the “% of control remaining” value is 105.008%.

For `COC(=O)c1ccc(N2CCN(Cc3nnnn3C3CC3)C(C)C2)cc1` (stereo not drawn) [CBK306129], the “% of control remaining” value was 77.8727%.

Regarding `Cc1ccc(C2CC(=O)Nc3nc(-c4ccccc4)[nH]c(=O)c32)c(C)c1` (stereo not drawn) [CBK287998], the “% of control remaining” value is recorded as 119.144%.

On to `CCN1CCN(C(=O)Cc2cn(C)c3ccccc23)CC1` [CBK200254], for which the “% of control remaining” value is listed as 129.771%.

Turning to `Cc1cc(C)n(CCNC2CCN(c3ccccc3C)CC2)c(=O)n1` [CBK306848], the “% of control remaining” value is listed as 148.173%.

For the compound `CC(=O)N1CCN(C(=O)c2cnc(-c3ccc(Cl)cc3)c(-c3ccco3)c2)CC1` [CBK037518], the “% of control remaining” value came out at 110.353%.

For `C[S+]([O-])CC(O)(c1ccc(F)cc1)C1CC1` (stereo not drawn) [CBK025846], the “% of control remaining” value is 105.715%.

Consider `CN(CCN(C)/N=C/c1c2ccccc2cc2ccccc12)/N=C/c1c2ccccc2cc2ccccc12` [CBK262039], for which the “% of control remaining” value worked out at 100%.

For `CN(C(=O)CSc1ncccc1C#N)c1ccccc1` [CBK288044], the “% of control remaining” value is recorded as 166.226%.

`CC(C)Nc1nccnc1OCc1ccsc1` [CBK115646]: the “% of control remaining” value amounted to 155.098%.

Regarding `O=C(C1=C(O)C(=O)N(c2ccc([N+](=O)[O-])cc2)C1c1ccccc1)c1ccccc1` (stereo not drawn) [CBK263787], the “% of control remaining” value is recorded as 125.903%.

In the case of `CCCN(C)Cc1ccc(-c2cn(CC(=O)NCc3ccc4c(c3)OC(F)(F)O4)nn2)cc1` [CBK166361], the “% of control remaining” value was 153.679%.

With `O=C(NC1CCN(CC2(c3ccccc3)CC2)CC1)C1CCC1` [CBK285322], the “% of control remaining” value worked out at 146.441%.

Regarding `CC(C)C(=O)Nc1cc2cccnc2c(-c2ccccc2)n1` [CBK081287], the “% of control remaining” value was 108.709%.

`Cc1nccn1CCCC(=O)NCC1(c2ccccc2F)CCCC1` [CBK281370]: the “% of control remaining” value is 95.0258%.

Take `c1ccc(-c2ccno2)c(OCc2ccc(-c3nccnc3-c3nnn[nH]3)cc2)c1` [CBK050817]: the “% of control remaining” value was found to be 147.824%.

Regarding `CCC(CC)C(=O)N(C)c1c(C)nc2c(OCC(=O)c3ccc(F)cc3)cccn12` [CBK147239], the “% of control remaining” value is listed as 111.231%.
